Measured values as given in PMC4284738, “14-3-3 Proteins Participate in Light Signaling through Association with PHYTOCHROME INTERACTING FACTORs” (International Journal of Molecular Sciences, 2014).
No constants are given. Whether binding was seen depends on the method and setting. Some binding calls cover weakened binding; strength is not graded here. Sequences can lack the tags named with a protein.

Protein sequences, listed by entry. Tags and fused reporters are not part of them.
UniProt Q8L5W7: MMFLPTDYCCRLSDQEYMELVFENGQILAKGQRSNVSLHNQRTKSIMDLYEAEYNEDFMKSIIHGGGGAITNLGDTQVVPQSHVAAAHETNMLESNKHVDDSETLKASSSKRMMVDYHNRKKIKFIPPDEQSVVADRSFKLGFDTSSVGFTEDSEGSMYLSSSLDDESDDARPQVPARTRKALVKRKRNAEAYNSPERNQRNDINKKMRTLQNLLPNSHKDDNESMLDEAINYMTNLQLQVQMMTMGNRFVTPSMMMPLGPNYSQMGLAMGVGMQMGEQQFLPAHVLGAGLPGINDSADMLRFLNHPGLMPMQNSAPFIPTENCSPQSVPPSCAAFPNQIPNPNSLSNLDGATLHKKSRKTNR

How the values were obtained:
[1] = molecular target: MBP-PIF6 (Arabidopsis thaliana) (UniProt Q8L5W7); assay: pull-down; 0.3–20 µg of His-14-3-3κ incubated with MBP or MBP-PIFs in MBP column buffer at 4 °C in dark for 5–6 h, then amylose resin overnight; elution with 10 mM maltose; blot with anti-His and anti-MBP; both purified
[2] = molecular target: T1, MBP-LONG HYPOCOTYL IN FAR-RED1 (HFR1) (Arabidopsis thaliana) (UniProt Q9FE22); assay: as above
T1 sequence: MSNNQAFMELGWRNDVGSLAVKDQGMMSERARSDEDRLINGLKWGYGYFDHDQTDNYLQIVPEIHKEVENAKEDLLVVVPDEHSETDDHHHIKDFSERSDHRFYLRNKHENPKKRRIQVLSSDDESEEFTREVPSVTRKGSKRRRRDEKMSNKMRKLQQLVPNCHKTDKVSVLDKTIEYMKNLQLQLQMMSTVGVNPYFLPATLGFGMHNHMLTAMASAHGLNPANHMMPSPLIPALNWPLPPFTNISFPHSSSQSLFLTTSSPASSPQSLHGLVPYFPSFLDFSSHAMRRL

B1: His-tagged 14-3-3κ (natural protein, Arabidopsis thaliana, UniProt P48348 1-248, looked up)
chain: MATTLSRDQYVYMAKLAEQAERYEEMVQFMEQLVSGATPAGELTVEERNLLSVAYKNVIGSLRAAWRIVSSIEQKEESRKNEEHVSLVKDYRSKVETELSSICSGILRLLDSHLIPSATASESKVFYLKMKGDYHRYLAEFKSGDERKTAAEDTMIAYKAAQDVAVADLAPTHPIRLGLALNFSVFYYEILNSSEKACSMAKQAFEEAIAELDTLGEESYKDSTLIMQLLRDNLTLWTSDMQEQMDEA
notes: 14-3-3 kappa isoform, Arabidopsis thaliana; also called HIS-14-3-3κ; His-14-3-3κ
[1]
  binding: binds
[2]
  binding: no binding
